Library screen at single concentrations

Mtb cholesterol medium: 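Whole-cell growth test on Mycobacterium tuberculosis, read after 4 days in a medium based on cholesterol and the lipid DPPC; the read-out is not stated. Concentration: 50 µM. The record gives no direction; compounds that gave an IC50 in retests scored well above the rest, so higher reads as more growth inhibition. About 69,000 compounds were tested under these conditions; 0.54% (about 370) showed 50% or more at least once.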
Mtb glucose medium: 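Whole-cell growth test on Mycobacterium tuberculosis, read after 3 days in glucose-containing 7H9 medium; the read-out is not stated. Tested at 50 µM. Direction is inferred from retests: higher values go with more growth inhibition. Of about 69,000 compounds tested this way, about 760 (1.1%) reached 50% or more in at least one test.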

Each number is a percent effect as filed.
The controls that fix the scale are not given in the record; negative values are as filed.
Compounds were drawn at random from those tested, without regard to their results.
Two or more numbers in one place are separate tests of the same structure; such repeats can differ widely.

structure,Mtb cholesterol medium,Mtb glucose medium
CN(Cc1ncnn1C)c1ccnc(Cc2ccccc2)n1,-5.779,-16.44
CCC(=O)NC1CCCN(C(=O)Nc2cc(-c3ccccc3)on2)C1 (stereo not shown),-7.239,36.69
CN(Cc1csc(-c2ccccc2)n1)C(=O)CCn1ccccc1=O,-15.36,-13.61
CCC(NC(=O)NC1CCN(S(C)(=O)=O)CC1)c1cccs1 (stereo not shown),-26.88,-1.203 & -29.84
COC(=O)C1CCN(C(=O)c2cccc(NS(C)(=O)=O)c2C)CC1,-14.18 & -0.6587,-11.67
CC(=O)N(C)CC(=O)Nc1cnc(-n2ccnc2C)nc1,-5.521,-56.16
Cc1ccc(-c2nc(CCNC(=O)CCN3CCOC3=O)co2)cc1,-5.668,12.35
[H][C@]12CN(Cc3ccccc3C)CC[C@@]1(O)CCN(C(=O)C1CCC1)C2,-31.85,-22.83
[H][C@]12CCCCN1CCC[C@@]2(O)CN(CC)Cc1noc(CC(C)C)n1,16.34,23.35 & 3.957
Cn1ccc(C(=O)NC2CCC23CCN(Cc2cccnc2)CC3)c1.O=C(O)C(F)(F)F.O=C(O)C(F)(F)F (stereo not shown),-3.733,-26.43
COc1ccccc1CN1CC[C@H](c2nnc(-c3cncn3C)o2)C1,19.24,19.23 & 1.12
Cc1nc2ccccn2c1CN1C[C@@H](CN(C)CCO)[C@@H](CO)C1,-3.914,19.23
CCc1nnsc1C(=O)NCc1nnc2n1CCCCC2,-8.074,-7.845
Nc1cc(C(=O)N2CCCC3(C=Cc4ccccc4O3)CC2)ccn1 (stereo not shown),-3.044 & 1.694,0.706
Cc1occc1C(=O)N1CCCC1c1ccc(C(=O)N2CCOCC2)s1 (stereo not shown),11.94 & -1.146,1.588 & 1.722
CC(C)N1CC(C(=O)NCCOc2ccc3c(c2)OCO3)CC1=O (stereo not shown),10.44,7.507
CCCS(=O)(=O)N1CCC2(CC1)CC(Nc1ncccn1)CO2 (stereo not shown),-0.6892,3.453
CCC1=NN2C(=N)/C(=C\c3cccn3-c3ccc(Br)cc3)C(=O)N=C2S1,-11.95,3.647
Cc1noc(C)c1CN(C)C(=O)COc1cccc(C#N)c1,-21.16,3.866
CCn1cc(CN2CCCn3nc(CNC(=O)N(C)C)cc3C2)cn1,-2.015 & 4.703,-6.11
Cc1nc(CN2C[C@@H](CN3CCOCC3)[C@@H](CO)C2)c2ccccn12,-1.369,11.49
[H][C@]12CCN(C(=O)C3CCC3)CC[C@@]1([H])S(=O)(=O)N(Cc1cccnc1)C2,-0.9345,-7.593
CCc1c(C)nc(SCc2ccccn2)[nH]c1=O,1.964,12.77
CNC(=O)C1(Cc2cc(C(C)C)no2)CCN(Cc2cccnc2)C1 (stereo not shown),-4.523 & -0.5154,-1.959
[H][C@]12CC[C@]([H])(C1)[C@H](NC(=O)COc1cccc(NC(=O)CC)c1)C2,6.521,4.383
Cc1nnc(N2CCc3cnc(C(C)C)nc3C2)c(C#N)c1C,-1.931,-61.55
c1coc(-c2noc(CN3CCCCC3Cn3cncn3)n2)c1 (stereo not shown),-3.158,-27.16
Cc1ccoc1C(=O)N1CCc2ncnc(-c3cnn(C)c3)c2CC1,-17.97,-37.44
CS(=O)(=O)NCC1CCCN(Cc2ccc(F)c3cccnc23)C1 (stereo not shown),-31.53,-37.95
Cc1cc(C)n(CCC2CC(=O)Nc3cc(O)c(C)cc32)n1 (stereo not shown),-16.89,-26.38
CCOCC1CN(C(=O)c2cc(C)oc2C)Cc2c1cnn2C.O=C(O)C(F)(F)F (stereo not shown),-21.47,-11.52 & -3.456
CCc1cc(=O)n(CC(=O)N2CCCCC2)c(-c2cccc(F)c2)n1,12.98,15.93
O=C(O)C(F)(F)F.O=C(c1ccco1)N1CCCC2(CN(Cc3ccc(F)cc3)CCO2)C1 (stereo not shown),5.813,2.747 & 19.47
CN(CCc1cccs1)C(=O)Nc1ccc2c(c1)C(=O)N(C)CC2,-12.51,-2.882 & -20.47
Cc1ccc(NC(=O)CNc2ccccc2C(N)=O)c(C)c1,-10.4,-34.47
O=C(O)C(F)(F)F.[H][C@@]12COC[C@]1([H])[C@@H](OCC1CCOCC1)CN2Cc1ccc(OC)cc1,-33.59,-29.64
Cc1cnccc1-c1cnn(CCNC(=O)C(C)(C)C)c1C1CC1.Cl,2.681,10.17
CC1(c2ncc(CN3CCN(c4ncccn4)CC3)cn2)CCCCO1 (stereo not shown),-0.1287 & 49.44,-3.377
O=C(CNC(=O)C1CC1)NCCOc1cccc(Cl)c1Cl,-45.53,-8.807 & -58.72
CC1Cc2ccccc2N1C(=O)Cn1nc(-c2cccs2)ccc1=O (stereo not shown),16.76,42.49
Cc1ccc(CN2CCN(c3nc4c(s3)c(C)nn4C)C(C)C2=O)cc1 (stereo not shown),-0.4149,-27.85
Cc1ccccc1CN1CCN(CC(=O)Nc2cccnc2)CC1,-5.459,23.7
c1ccc(-c2nnc(C3CCCN(CC4CCCCC4)C3)o2)nc1 (stereo not shown),2.491,31.4
CN(C)C1CC2(CCN(C(=O)NC3CC3)CC2)c2ccccc21.O=C(O)C(F)(F)F (stereo not shown),-32.57,-25.6
CCN1CCNC(=O)C12CCN(C(=O)c1ccccn1)CC2,15.89,-40.21
CCc1cc(C(=O)N2CCC(O)(Cn3ccc4ccncc43)CC2)no1,-6.832,-13.17

For reference, 6 entries once more:

- [H][C@]12CN(Cc3ccccc3C)CC[C@@]1(O)CCN(C(=O)C1CCC1)C2 : Mtb cholesterol medium: -31.85%; Mtb glucose medium: -22.83%
- Cc1nc2ccccn2c1CN1C[C@@H](CN(C)CCO)[C@@H](CO)C1 : Mtb cholesterol medium: -3.914%; Mtb glucose medium: 19.23%
- CCC(=O)NC1CCCN(C(=O)Nc2cc(-c3ccccc3)on2)C1 (stereo not shown) : Mtb cholesterol medium: -7.239%; Mtb glucose medium: 36.69%
- [H][C@]12CC[C@]([H])(C1)[C@H](NC(=O)COc1cccc(NC(=O)CC)c1)C2 : Mtb cholesterol medium: 6.521%; Mtb glucose medium: 4.383%
- CCOCC1CN(C(=O)c2cc(C)oc2C)Cc2c1cnn2C.O=C(O)C(F)(F)F (stereo not shown) : Mtb cholesterol medium: -21.47%; Mtb glucose medium: -11.52% & -3.456%
- Cc1cc(C)n(CCC2CC(=O)Nc3cc(O)c(C)cc32)n1 (stereo not shown) : Mtb cholesterol medium: -16.89%; Mtb glucose medium: -26.38%

Source: ChEMBL document CHEMBL3988442, “University of Dundee, Small-Polar-MMV Screening Library” (2021).